Test results published in the supplement of paper PMC3545927.
Only a part is listed here, and it is no random draw.

Chains of the proteins cited; added tags and fusions are not shown.
furin, P09958, UniProt P09958, whole entry: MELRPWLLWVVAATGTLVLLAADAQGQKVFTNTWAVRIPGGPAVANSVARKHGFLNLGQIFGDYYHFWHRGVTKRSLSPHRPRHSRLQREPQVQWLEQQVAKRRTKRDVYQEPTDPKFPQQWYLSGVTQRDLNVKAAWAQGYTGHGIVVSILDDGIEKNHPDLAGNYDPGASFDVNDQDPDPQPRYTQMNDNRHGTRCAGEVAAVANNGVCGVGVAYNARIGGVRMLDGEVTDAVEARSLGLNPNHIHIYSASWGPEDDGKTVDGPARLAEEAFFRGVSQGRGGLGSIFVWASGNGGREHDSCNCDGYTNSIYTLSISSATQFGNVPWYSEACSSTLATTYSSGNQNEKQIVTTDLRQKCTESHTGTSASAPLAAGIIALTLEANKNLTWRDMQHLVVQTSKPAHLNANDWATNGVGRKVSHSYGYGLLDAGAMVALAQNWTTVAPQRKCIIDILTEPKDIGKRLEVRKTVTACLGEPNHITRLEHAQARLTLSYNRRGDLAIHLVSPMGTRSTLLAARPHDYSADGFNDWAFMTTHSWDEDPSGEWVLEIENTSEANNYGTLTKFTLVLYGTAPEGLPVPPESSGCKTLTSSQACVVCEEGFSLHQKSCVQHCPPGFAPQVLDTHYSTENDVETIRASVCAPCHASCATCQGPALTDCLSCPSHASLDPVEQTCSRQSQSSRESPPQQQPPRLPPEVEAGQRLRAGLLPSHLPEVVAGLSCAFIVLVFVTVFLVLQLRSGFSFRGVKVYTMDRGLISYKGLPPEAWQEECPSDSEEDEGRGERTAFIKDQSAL

Biological target: furin, P09958
Assay: furin cleavage Z-score vs untreated control; higher = more cleavage, active = 3.5 or more, inactive = 1 or less, 8 variable residues between constant flanks
Method in brief: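 Furin-free reactions served as the baseline for the cleavage Z-score, which is the log read count lowess-adjusted and scaled by median absolute deviation. Counts came from released DNA, adapter-tagged by PCR and sequenced. Purified furin had cut 8-mer peptides fused to a cDNA oligonucleotide on magnetic beads during 7.5, 15 or 30 min at 1:10 enzyme:substrate.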
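Further: purified furin at 1:10 enzyme:substrate in 50 mM HEPES pH 7.5.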

Sequence | furin cleavage Z-score (7.5 min) | furin cleavage Z-score (15 min) | furin cleavage Z-score (30 min)
CAKGSRWKRPAGNASASA [FS-545] | 2.91 | 1.45 | 1.53
CAYRFVAPGEAGNASASA [HC910] | inactive: -0.691 | inactive: -0.942 | inactive: -0.913
CARKRRVRKDAGNASASA [FS-1560] | active: 8.86 | active: 7.9 | active: 6.61
CAEQEVPCHRAGNASASA [HC2462] | 1.83 | 2.22 | 1.53
CAARRRAARGAGNASASA [FS-401] | 3.34 | 1.74 | 2.51
CAYSFRKVRDAGNASASA [FS-1506] | 1.62 | 1.48 | 2.13
CATQRREQRDAGNASASA [FS-882] | 1.33 | 2.13 | 3.41
CARQKREIDVAGNASASA [FS-3035] | active: 10.8 | active: 12.7 | active: 11.5
CARHYRNVFHAGNASASA [FS-2557] |  |  | active: 5.01
CAHPQRSKKAAGNASASA [FS-248] | inactive: -0.0765 | inactive: 0.432 | 1.4
CARARSVRARAGNASASA [HC1622] | 2.03 | 1.81 | 3.26
CAEPEVPCHRAGNASASA [HC2459] | 1.5 | 1.07 | 1.58
CAGKSRNKRQAGNASASA [FS-243] | active: 10.4 | active: 10.6 | active: 10.1
CARVRRQIHAAGNASASA [FS-2319] | active: 8.32 | active: 8.68 | active: 7.57
CAMEEASQHLAGNASASA [HC1] | 2.06 | 1.67 | 1.31
CARRKRKKKEAGNASASA [FS-712] | 1.66 | 1.49 | 2.32
CARIGRTARSAGNASASA [FS-559] | active: 14.2 | active: 12.8 | active: 11.2
CAMEECSPHLAGNASASA [HC1739] | 2.54 | 2.72 | 2.17
CAKSARSVRAAGNASASA [FS-1673] | active: 6.74 | active: 6.73 | active: 7

Sequence | furin cleavage Z-score (7.5 min) | furin cleavage Z-score (15 min) | furin cleavage Z-score (30 min)
CARRLRALRSAGNASASA [FS-374] | 3.3 | 1.7 | 3.47
CAHQWISSECAGNASASA [HC1141] | inactive: -0.592 | inactive: -1.1 | inactive: 0.453
CAVDNRAVRSAGNASASA [FS-732] | 1.7 | 2.07 | 1.92
CAQDCTMLVCAGNASASA [HC1525] | 2.4 | 1.18 | 1.13
CACTRGVAKAAGNASASA [HC753] | inactive: -1.87 | inactive: -0.584 | inactive: -0.853
CARVKRGWVWAGNASASA [FS-2101] |  | active: 4.37 | active: 8.77
CARIKRSAPLAGNASASA [FS-2954] | active: 11.4 | active: 11.4 | active: 10.2
CAVVCCSKSYAGNASASA [HC2054] | 1.39 | 1.52 | 1.41
CARPSRPPRGAGNASASA [FS-1564] | 1.46 | 2.69 | 2.63
CAGSYRCVRDAGNASASA [FS-1004] | 1.73 | 1.33 | 2.08
CAYVGGPLTNAGNASASA [HC1501] | inactive: -0.238 | inactive: -0.463 | inactive: -0.523
CAPEARLRRVAGNASASA [FS-839] | inactive: 0.0356 | 3.09 | 2.39
CARKKRKDAKAGNASASA [FS-3221] | 1.6 | 2.26 | 2.33
CAKNYREQRSAGNASASA [FS-1636] | 3.03 | 2.4 | 3.3
CARVMRWNSKAGNASASA [FS-3120] | inactive: -0.31 | inactive: 0.804 | 2.88
CARIPRSREVAGNASASA [FS-2151] | 1.64 | 3.44 | 3.3
CAHHCRLRRSAGNASASA [FS-1592] | 1.96 | 1.5 | 1.02
CARQRREKGAAGNASASA [FS-1833] | 2.19 | 3.12 | 2.96
CAVKKRSVSEAGNASASA [FS-3139] | 1.35 | 1.15 | 1.17

Already shown: an excerpt of the list.
Sequence | furin cleavage Z-score (7.5 min) | furin cleavage Z-score (15 min) | furin cleavage Z-score (30 min)
CARIKRSAPLAGNASASA [FS-2954] | active: 11.4 | active: 11.4 | active: 10.2
CAVVCCSKSYAGNASASA [HC2054] | 1.39 | 1.52 | 1.41
